# Laboratory results reported in PubChem BioAssay AID270 (DTP/NCI, 2004).
# The list does not hold the whole screen: it is rich in T/C values a quarter to a half above the control, in often repeated tests (any T/C) and in doses without a T/C. Further doses and runs are listed elsewhere. T/C: endpoint of the treated group in % of that of the vehicle group. Schedule codes are those of the source, read here as Q, the interval in days (D) or hours (H), X, the number of doses. Some entries give survivors of the animals treated and no T/C: the source files T/C as zero there, which appears to mark a toxic dose or a test without result, not a measured value. Some survivor counts are full or nearly so, which does not show that the dose was tolerated: survival well below the control is almost never listed, so the zero probably covers shortened survival too. Counts of survivors are from the toxicity check (mostly the fifth day) where no day follows; animals may have died later. For survival time, this PubChem deposit counts one and a half times the control or more as active, and values a quarter to a half above the control carry no call in these data; other NCI protocols may use other cut-offs.
# Tested on: BDF1 mice, s.c. Lewis lung carcinoma, T/C %
# Test: NCI In Vivo Anticancer Drug Screen. Data for tumor model Lewis Lung Carcinoma (subcutaneous) in B6D2F1 (BDF1) mice
# Method in brief: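 Transplanted tumors grown in mice; compound vs vehicle dosing; endpoint survival or tumor size; ratio T/C.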
# [1] = T/C endpoint: mean tumor weight, dose: 200.0 mg/kg/injection, schedule: Q01DX011 (ip), vehicle: saline, higher T/C = larger tumour
# [2] = T/C endpoint: median survival time, dose: 25.0 mg/kg/injection, schedule: Q01DX009 (ip), vehicle: saline with Tween-80, higher T/C = longer survival
# [3] = T/C endpoint: median survival time, dose: 25.0 mg/kg/injection, schedule: Q01DX009 (ip), vehicle: Klucel (hydroxypropylcellulose) (HPC), higher T/C = longer survival
# [4] = T/C endpoint: median survival time, dose: 200.0 mg/kg/injection, schedule: Q01DX009 (ip), vehicle: Klucel (hydroxypropylcellulose) (HPC), higher T/C = longer survival
compound,measurement,setting,value
Cc1c2ccncc2c(C)c2c1[nH]c1ccccc12,T/C,"T/C endpoint: median survival time, dose: 18.75 mg/kg/injection, schedule: Q04DX003 (ip), vehicle: saline with Tween-80, higher T/C = longer survival",129 % of control
same,survivor count,"T/C endpoint: median survival time, dose: 150.0 mg/kg/injection, schedule: Q04DX003 (ip), vehicle: saline with Tween-80, higher T/C = longer survival",10 of 10
CCCCCCCCCCCC[N+](C)(C)Cc1ccccc1,survivor count,"T/C endpoint: median survival time, dose: 0.5 mg/kg/injection, schedule: Q01DX009 (ip), vehicle: saline, higher T/C = longer survival",10 of 10
same,survivor count,"T/C endpoint: median survival time, dose: 8.0 mg/kg/injection, schedule: Q01DX009 (ip), vehicle: saline, higher T/C = longer survival",5 of 10
same,survivor count,"T/C endpoint: median survival time, dose: 500.0 micrograms/kg/injection, schedule: Q01DX009 (ip), vehicle: saline, higher T/C = longer survival",10 of 10
CC(=O)NC1=C(N2CC2)C(=O)C(NC(C)=O)=C(N2CC2)C1=O,T/C,"T/C endpoint: median survival time, dose: 1.0 mg/kg/injection, schedule: Q01DX005 (ip), vehicle: saline with Tween-80, higher T/C = longer survival",126 % of control
same,T/C,"T/C endpoint: median survival time, dose: 1.0 mg/kg/injection, schedule: Q01DX009 (ip), vehicle: saline with Tween-80, higher T/C = longer survival",126 % of control
same,T/C,"T/C endpoint: median survival time, dose: 2.0 mg/kg/injection, schedule: Q01DX005 (ip), vehicle: saline with Tween-80, higher T/C = longer survival",135 % of control
same,survivor count,"T/C endpoint: median survival time, dose: 2.0 mg/kg/injection, schedule: Q01DX009 (ip), vehicle: saline with Tween-80, higher T/C = longer survival",10 of 10
same,survivor count,"T/C endpoint: median survival time, dose: 4.0 mg/kg/injection, schedule: Q01DX005 (ip), vehicle: saline with Tween-80, higher T/C = longer survival",10 of 10
CN(CCC(=O)c1ccccc1)CCC(=O)c1ccccc1,T/C,"T/C endpoint: mean tumor weight, dose: 37.0 mg/kg/injection, schedule: Q01DX011 (ip), vehicle: other, evaluated on day 12, higher T/C = larger tumour",128 % of control
same,survivor count,"T/C endpoint: mean tumor weight, dose: 125.0 mg/kg/injection, schedule: Q01DX011 (ip), vehicle: other, higher T/C = larger tumour",2 of 6
Oc1cc2c3c(c1)c1cc4c(cc1c[n+]3CC2)OCO4,T/C,"T/C endpoint: median survival time, dose: 1.56 mg/kg/injection, schedule: Q01DX009 (ip), vehicle: water, higher T/C = longer survival",131 % of control
same,survivor count,"T/C endpoint: median survival time, dose: 50.0 mg/kg/injection, schedule: Q01DX009 (ip), vehicle: water, higher T/C = longer survival",7 of 10
CC[C@H]1CN2CCc3cc(OC)c(OC)cc3[C@@H]2C[C@@H]1C[C@H]1NCCc2cc(O)c(OC)cc21,survivor count,"T/C endpoint: mean tumor weight, dose: 10.0 mg/kg/injection, schedule: Q01DX011 (ip), vehicle: saline, higher T/C = larger tumour",2 of 6
CCC[CH2][Sn]([CH2]CCC)([CH2]CCC)[O]C(=O)CC[S][Sn]([CH2]CCC)([CH2]CCC)[CH2]CCC,survivor count,"T/C endpoint: mean tumor weight, dose: 1.5 mg/kg/injection, schedule: Q01DX011 (ip), vehicle: saline, higher T/C = larger tumour",0 of 7
same,survivor count,"T/C endpoint: mean tumor weight, dose: 6.0 mg/kg/injection, schedule: Q01DX011 (ip), vehicle: saline, higher T/C = larger tumour",1 of 7
Nc1ccc2ccccc2c1N=Nc1ccccc1,survivor count,"T/C endpoint: mean tumor weight, dose: 750.0 mg/kg/injection, schedule: Q01DX011 (ip), vehicle: other, higher T/C = larger tumour",2 of 6
same,survivor count,"T/C endpoint: mean tumor weight, dose: 1000.0 mg/kg/injection, schedule: Q01DX011 (ip), vehicle: other, higher T/C = larger tumour",0 of 6
Nc1nc(=S)c2ncn(C3CC(O)C(CO)O3)c2[nH]1 (stereo unspecified),T/C,"T/C endpoint: median survival time, dose: 32.0 mg/kg/injection, schedule: Q01DX009 (ip), vehicle: saline, higher T/C = longer survival",149 % of control
C=CC(=O)NCNC(=O)C=C,survivor count,"T/C endpoint: mean tumor weight, dose: 150.0 mg/kg/injection, schedule: Q01DX011 (ip), vehicle: saline, higher T/C = larger tumour",2 of 6
CC(=O)NCCSC(=O)C(=O)SCCNC(C)=O,survivor count,[1],1 of 6
CCCCn1cnc2c(=S)nc[nH]c21,survivor count,"T/C endpoint: mean tumor weight, dose: 120.0 mg/kg/injection, schedule: Q01DX011 (ip), vehicle: water, higher T/C = larger tumour",2 of 6
NC(CSC(c1ccccc1)(c1ccccc1)c1ccccc1)C(=O)O (stereo unspecified),survivor count,"T/C endpoint: mean tumor weight, dose: 25.0 mg/kg/injection, schedule: Q01DX011 (ip), vehicle: methylcellulose (MC), higher T/C = larger tumour",2 of 4
same,survivor count,"T/C endpoint: median survival time, dose: 16.0 mg/kg/injection, schedule: Q01DX009 (ip), vehicle: Klucel (hydroxypropylcellulose) (HPC), higher T/C = longer survival",10 of 10
same,survivor count,"T/C endpoint: median survival time, dose: 64.0 mg/kg/injection, schedule: Q01DX009 (ip), vehicle: Klucel (hydroxypropylcellulose) (HPC), higher T/C = longer survival",10 of 10
same,survivor count,"T/C endpoint: median survival time, dose: 128.0 mg/kg/injection, schedule: Q01DX009 (ip), vehicle: Klucel (hydroxypropylcellulose) (HPC), higher T/C = longer survival",10 of 10
Cc1cc(N(CC(C)Br)CC(C)Br)ccc1N=Nc1ccccc1C(=O)O (stereo unspecified),survivor count,"T/C endpoint: median survival time, dose: 12.5 mg/kg/injection, schedule: Q01DX009 (ip), vehicle: saline with Tween-80, higher T/C = longer survival",10 of 10
same,survivor count,[2],7 of 10
NC(Cc1cc([N+](=O)[O-])ccc1CN(CCCl)CCCl)C(=O)O (stereo unspecified),survivor count,"T/C endpoint: median survival time, dose: 4.0 mg/kg/injection, schedule: Q01DX009 (ip), vehicle: Klucel (hydroxypropylcellulose) (HPC), higher T/C = longer survival",10 of 10
same,survivor count,"T/C endpoint: median survival time, dose: 8.0 mg/kg/injection, schedule: Q01DX009 (ip), vehicle: Klucel (hydroxypropylcellulose) (HPC), higher T/C = longer survival",10 of 10
same,survivor count,"T/C endpoint: median survival time, dose: 25.0 mg/kg/injection, schedule: Q01DX001 (ip), vehicle: Klucel (hydroxypropylcellulose) (HPC), higher T/C = longer survival",6 of 10
COc1cc(-c2cc(=O)c3c(OC)c(OC)c(OC)c(OC)c3o2)cc(OC)c1OC,survivor count,"T/C endpoint: mean tumor weight, dose: 400.0 mg/kg/injection, schedule: Q01DX010 (sc), vehicle: steroid suspending solution, higher T/C = larger tumour",3 of 6
FC(F)(F)c1cc(CN(CCCl)CCCl)cc(C(F)(F)F)c1,survivor count,[3],10 of 10
same,survivor count,"T/C endpoint: median survival time, dose: 100.0 mg/kg/injection, schedule: Q01DX009 (ip), vehicle: Klucel (hydroxypropylcellulose) (HPC), higher T/C = longer survival",10 of 10
same,survivor count,[4],8 of 10
Nc1nc2[nH]c(=O)cnc2c(=O)[nH]1,survivor count,[2],10 of 10
same,survivor count,"T/C endpoint: median survival time, dose: 50.0 mg/kg/injection, schedule: Q01DX009 (ip), vehicle: saline, higher T/C = longer survival",10 of 10
CC1CN=C(C(=O)C(C)C2CCC3C4CC=C5CC(O)CCC5(C)C4CCC23C)C1 (stereo unspecified),T/C,"T/C endpoint: mean tumor weight, dose: 25.0 mg/kg/injection, schedule: Q01DX011 (sc), vehicle: steroid suspending solution, evaluated on day 12, higher T/C = larger tumour",125 % of control
same,T/C,"T/C endpoint: mean tumor weight, dose: 50.0 mg/kg/injection, schedule: Q01DX011 (sc), vehicle: steroid suspending solution, evaluated on day 12, higher T/C = larger tumour",137 % of control
C/C=C(\C)C(=O)O[C@@H]1c2cc3c(cc2-c2c(cc(OC)c(OC)c2OC)[C@@H]2C(=O)OC[C@@H]12)OCO3,survivor count,"T/C endpoint: median survival time, dose: 10.0 mg/kg/injection, schedule: Q01DX009 (ip), vehicle: Klucel (hydroxypropylcellulose) (HPC), higher T/C = longer survival",10 of 10
CC(=O)[O][Hg][c]1c(C)c(C)c(C)c(C)c1C,survivor count,"T/C endpoint: median survival time, dose: 1.5 mg/kg/injection, schedule: Q01DX009 (ip), vehicle: Klucel (hydroxypropylcellulose) (HPC), higher T/C = longer survival",10 of 10
same,survivor count,"T/C endpoint: median survival time, dose: 3.0 mg/kg/injection, schedule: Q01DX009 (ip), vehicle: Klucel (hydroxypropylcellulose) (HPC), higher T/C = longer survival",10 of 10
same,survivor count,"T/C endpoint: median survival time, dose: 12.5 mg/kg/injection, schedule: Q01DX009 (ip), vehicle: Klucel (hydroxypropylcellulose) (HPC), higher T/C = longer survival",8 of 10
same,survivor count,[3],5 of 10
CN(C)c1ccc(/C=C\c2ccnc3ccccc23)cc1,survivor count,"T/C endpoint: mean tumor weight, dose: 40.0 mg/kg/injection, schedule: Q01DX011 (ip), vehicle: other, higher T/C = larger tumour",1 of 6
same,survivor count,"T/C endpoint: mean tumor weight, dose: 80.0 mg/kg/injection, schedule: Q01DX011 (ip), vehicle: other, higher T/C = larger tumour",0 of 6
same,survivor count,"T/C endpoint: mean tumor weight, dose: 150.0 mg/kg/injection, schedule: Q01DX011 (ip), vehicle: other, higher T/C = larger tumour",0 of 6
same,survivor count,"T/C endpoint: mean tumor weight, dose: 222.0 mg/kg/injection, schedule: Q01DX011 (ip), vehicle: other, higher T/C = larger tumour",0 of 6
same,survivor count,"T/C endpoint: mean tumor weight, dose: 333.0 mg/kg/injection, schedule: Q01DX011 (ip), vehicle: other, higher T/C = larger tumour",0 of 6
same,survivor count,"T/C endpoint: mean tumor weight, dose: 500.0 mg/kg/injection, schedule: Q01DX011 (ip), vehicle: other, higher T/C = larger tumour",0 of 6
N#C/C(=C\c1ccncc1)c1csc2ccccc12,survivor count,[4],10 of 10
CNS(=O)(=O)c1ncnc2nc[nH]c12,survivor count,"T/C endpoint: mean tumor weight, dose: 115.0 mg/kg/injection, schedule: Q01DX011 (ip), vehicle: carboxymethylcellulose (CMC), higher T/C = larger tumour",3 of 6
same,survivor count,"T/C endpoint: mean tumor weight, dose: 170.0 mg/kg/injection, schedule: Q01DX011 (ip), vehicle: carboxymethylcellulose (CMC), higher T/C = larger tumour",0 of 6
same,survivor count,"T/C endpoint: mean tumor weight, dose: 255.0 mg/kg/injection, schedule: Q01DX011 (ip), vehicle: carboxymethylcellulose (CMC), higher T/C = larger tumour",0 of 6
O=C(O)c1cc(=O)cc(C(=O)O)o1,survivor count,[1],2 of 6
C/C(=C\c1ccc(C)cc1)[N+](=O)[O-],survivor count,"T/C endpoint: median survival time, dose: 200.0 mg/kg/injection, schedule: Q01DX009 (ip), vehicle: saline with Tween-80, higher T/C = longer survival",2 of 10
Nc1nc(-c2ccccc2N=NN2CCCC2)nc2ccccc12,survivor count,"T/C endpoint: median survival time, dose: 50.0 mg/kg/injection, schedule: Q01DX009 (ip), vehicle: Klucel (hydroxypropylcellulose) (HPC), higher T/C = longer survival",10 of 10
[CH3][Sn]([CH3])([CH3])[O]C(=O)CCl,survivor count,"T/C endpoint: median survival time, dose: 1.5 mg/kg/injection, schedule: Q01DX009 (ip), vehicle: saline, higher T/C = longer survival",9 of 10
same,survivor count,"T/C endpoint: median survival time, dose: 3.0 mg/kg/injection, schedule: Q01DX009 (ip), vehicle: saline, higher T/C = longer survival",4 of 10
CC(C)n1c2c([n+](C)c1/C=C/c1ccccc1)C(=O)c1ccccc1C2=O,survivor count,"T/C endpoint: median survival time, dose: 2.0 mg/kg/injection, schedule: Q01DX009 (ip), vehicle: saline, higher T/C = longer survival",0 of 10
